For at least one compound, name, drawing or mass did not settle the structure.
How the values were obtained:
[1] = test system: human M-MDSCs and G-MDSCs; test: Human MDSC expansion from lung cancer patient bone marrow (GM-CSF+IL6); type: cell-based; conditions: 2 or 10 μM MPP, 4 days, bone marrow of 5 lung cancer patients (FIG. 5D, 5E)
[2] = test system: M-MDSCs and G-MDSCs from naïve WT mouse bone marrow; test: Mouse bone marrow-derived MDSC cultures (GM-CSF+IL6), flow cytometry; type: cell-based; conditions: 2 μM MPP, 3 and 6 days, GM-CSF+IL6 (FIG. 5A, 5B)

## Cc1c(-c2ccc(O)cc2)nn(-c2ccc(O)cc2)c1-c1ccc(OCCN2CCCCC2)cc1 [MPP, methylpiperidino pyrazole]
[1]
  Expansion of human M- and G-MDSC lineages (proportions and absolute numbers): dramatic dose-dependent reduction
[2]
  Expansion of M-MDSCs and G-MDSCs: severely inhibited the expansion of both M-MDSCs and G-MDSCs
